Data from US9145440 (dated 2015).

Experiments:
[1] = general procedure: solution-phase peptide synthesis
[2] = peptide synthesis; conditions: whole synthesis, scale 0.424 mmol

## (H-Cys-Tyr-Ala-Thr-NHBn)2
[1]; coupling step, one disulfide bridge, sequence written open
  step yield: 40%

## Boc-Val-Gln(Tr)-Lys(Boc)-Asp(OAll)-Val-Thr(^tBu)-Ser(^tBu)-OH
[2]
  crude HPLC purity: 83% pure
  crude mass: 422 mg
  crude yield: 73% crude yield

## Boc-Val-Gln(Tr)-Lys(Boc)-Asp-Val-Thr(^tBu)-Ser(^tBu)-OMe
[1]; whole synthesis, over 15 steps
  isolated yield: 54% yield over 15 steps

## H-CYAT-NHBn
[1]; coupling step
  step yield: 43%

## H-EYTT-NHBn
[1]; coupling step, TFA salt, run 1
  step yield: 71% yield
[1]; coupling step, TFA salt, run 2
  step yield: 88% yield

## H-Val-Gln-Lys-Asp(SH)-Val-Thr-Ser-OMe
[1]; late stage modification step
  step yield: 57% yield

* marks the point of attachment. NHBn = c1ccc(CN*)cc1
